Test results taken from paper PMC2614481.
Results are given in words; binding and its absence hold for the method and conditions named. Binding seen in cells or lysates may run through a third protein. A yes stands for co-enrichment or nearness to the bait. Other partners may have been found. For some of these results: No binding means not detected with the bait.

Protein sequences, listed by entry. Tags and fused reporters are not part of them. Lines headed by an entry give the natural chain unless they say otherwise; changes in a name come on top.
UniProt P48003: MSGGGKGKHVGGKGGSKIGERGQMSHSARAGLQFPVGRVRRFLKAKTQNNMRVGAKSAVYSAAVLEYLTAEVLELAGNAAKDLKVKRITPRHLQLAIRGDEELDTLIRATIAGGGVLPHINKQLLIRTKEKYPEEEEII
UniProt Q9C0X6: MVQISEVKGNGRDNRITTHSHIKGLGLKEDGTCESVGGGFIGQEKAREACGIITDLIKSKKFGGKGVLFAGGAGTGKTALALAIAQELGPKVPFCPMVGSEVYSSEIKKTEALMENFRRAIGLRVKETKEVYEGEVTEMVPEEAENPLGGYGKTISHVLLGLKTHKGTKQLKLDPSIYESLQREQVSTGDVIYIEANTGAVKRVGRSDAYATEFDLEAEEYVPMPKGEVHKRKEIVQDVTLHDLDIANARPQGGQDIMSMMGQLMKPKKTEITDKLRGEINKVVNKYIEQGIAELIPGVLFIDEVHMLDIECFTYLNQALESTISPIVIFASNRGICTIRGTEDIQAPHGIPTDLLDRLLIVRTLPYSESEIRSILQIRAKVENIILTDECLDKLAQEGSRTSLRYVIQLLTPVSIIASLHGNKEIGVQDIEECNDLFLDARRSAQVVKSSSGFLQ
UniProt Q9UT79: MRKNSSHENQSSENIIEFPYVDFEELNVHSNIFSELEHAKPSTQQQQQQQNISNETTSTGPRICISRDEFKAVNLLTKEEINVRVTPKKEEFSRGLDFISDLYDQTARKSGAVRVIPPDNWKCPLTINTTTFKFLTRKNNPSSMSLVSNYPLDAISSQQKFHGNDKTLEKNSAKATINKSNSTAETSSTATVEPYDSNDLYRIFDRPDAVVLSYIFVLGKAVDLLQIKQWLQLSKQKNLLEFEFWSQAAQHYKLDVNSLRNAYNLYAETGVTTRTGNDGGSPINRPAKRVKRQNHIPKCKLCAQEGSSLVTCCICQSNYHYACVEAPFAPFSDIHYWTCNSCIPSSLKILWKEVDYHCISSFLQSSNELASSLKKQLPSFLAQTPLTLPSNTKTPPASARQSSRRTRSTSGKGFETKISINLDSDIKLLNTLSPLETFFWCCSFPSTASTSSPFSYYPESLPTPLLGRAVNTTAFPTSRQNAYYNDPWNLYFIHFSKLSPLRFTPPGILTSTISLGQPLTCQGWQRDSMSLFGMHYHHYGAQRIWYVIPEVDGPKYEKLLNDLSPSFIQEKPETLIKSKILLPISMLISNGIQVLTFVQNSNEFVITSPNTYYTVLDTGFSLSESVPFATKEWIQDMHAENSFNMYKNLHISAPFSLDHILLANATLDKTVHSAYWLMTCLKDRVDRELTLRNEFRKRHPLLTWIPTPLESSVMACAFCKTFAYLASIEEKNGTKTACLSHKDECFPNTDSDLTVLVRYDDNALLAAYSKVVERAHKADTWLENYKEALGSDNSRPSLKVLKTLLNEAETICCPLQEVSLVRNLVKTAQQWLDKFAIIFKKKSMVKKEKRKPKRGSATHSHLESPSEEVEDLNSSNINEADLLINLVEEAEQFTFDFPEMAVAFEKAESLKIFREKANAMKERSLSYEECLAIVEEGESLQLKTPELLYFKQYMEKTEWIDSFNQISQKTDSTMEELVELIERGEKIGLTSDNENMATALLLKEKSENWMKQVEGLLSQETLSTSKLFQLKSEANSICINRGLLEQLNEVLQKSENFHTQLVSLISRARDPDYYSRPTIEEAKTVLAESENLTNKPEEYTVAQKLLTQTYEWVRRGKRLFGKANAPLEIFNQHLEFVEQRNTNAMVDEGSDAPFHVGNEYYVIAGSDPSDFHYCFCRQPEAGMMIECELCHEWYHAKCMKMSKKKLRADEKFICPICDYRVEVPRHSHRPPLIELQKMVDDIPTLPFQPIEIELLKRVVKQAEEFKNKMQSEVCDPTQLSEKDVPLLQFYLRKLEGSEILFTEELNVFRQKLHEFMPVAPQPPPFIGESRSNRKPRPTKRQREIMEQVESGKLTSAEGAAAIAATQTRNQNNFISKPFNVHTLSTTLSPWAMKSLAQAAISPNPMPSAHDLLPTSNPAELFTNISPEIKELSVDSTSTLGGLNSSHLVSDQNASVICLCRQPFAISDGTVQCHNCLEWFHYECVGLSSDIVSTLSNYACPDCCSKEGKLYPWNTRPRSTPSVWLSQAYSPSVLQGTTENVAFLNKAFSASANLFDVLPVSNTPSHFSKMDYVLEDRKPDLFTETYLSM
UniProt O42871: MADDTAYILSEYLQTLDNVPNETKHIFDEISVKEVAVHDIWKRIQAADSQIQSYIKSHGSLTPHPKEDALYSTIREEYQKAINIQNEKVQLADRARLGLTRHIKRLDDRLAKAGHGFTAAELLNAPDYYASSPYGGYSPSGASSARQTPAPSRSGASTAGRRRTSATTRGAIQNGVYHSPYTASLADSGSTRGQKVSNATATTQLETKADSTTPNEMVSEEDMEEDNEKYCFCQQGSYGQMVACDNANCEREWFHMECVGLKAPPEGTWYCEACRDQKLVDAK
UniProt Q10064: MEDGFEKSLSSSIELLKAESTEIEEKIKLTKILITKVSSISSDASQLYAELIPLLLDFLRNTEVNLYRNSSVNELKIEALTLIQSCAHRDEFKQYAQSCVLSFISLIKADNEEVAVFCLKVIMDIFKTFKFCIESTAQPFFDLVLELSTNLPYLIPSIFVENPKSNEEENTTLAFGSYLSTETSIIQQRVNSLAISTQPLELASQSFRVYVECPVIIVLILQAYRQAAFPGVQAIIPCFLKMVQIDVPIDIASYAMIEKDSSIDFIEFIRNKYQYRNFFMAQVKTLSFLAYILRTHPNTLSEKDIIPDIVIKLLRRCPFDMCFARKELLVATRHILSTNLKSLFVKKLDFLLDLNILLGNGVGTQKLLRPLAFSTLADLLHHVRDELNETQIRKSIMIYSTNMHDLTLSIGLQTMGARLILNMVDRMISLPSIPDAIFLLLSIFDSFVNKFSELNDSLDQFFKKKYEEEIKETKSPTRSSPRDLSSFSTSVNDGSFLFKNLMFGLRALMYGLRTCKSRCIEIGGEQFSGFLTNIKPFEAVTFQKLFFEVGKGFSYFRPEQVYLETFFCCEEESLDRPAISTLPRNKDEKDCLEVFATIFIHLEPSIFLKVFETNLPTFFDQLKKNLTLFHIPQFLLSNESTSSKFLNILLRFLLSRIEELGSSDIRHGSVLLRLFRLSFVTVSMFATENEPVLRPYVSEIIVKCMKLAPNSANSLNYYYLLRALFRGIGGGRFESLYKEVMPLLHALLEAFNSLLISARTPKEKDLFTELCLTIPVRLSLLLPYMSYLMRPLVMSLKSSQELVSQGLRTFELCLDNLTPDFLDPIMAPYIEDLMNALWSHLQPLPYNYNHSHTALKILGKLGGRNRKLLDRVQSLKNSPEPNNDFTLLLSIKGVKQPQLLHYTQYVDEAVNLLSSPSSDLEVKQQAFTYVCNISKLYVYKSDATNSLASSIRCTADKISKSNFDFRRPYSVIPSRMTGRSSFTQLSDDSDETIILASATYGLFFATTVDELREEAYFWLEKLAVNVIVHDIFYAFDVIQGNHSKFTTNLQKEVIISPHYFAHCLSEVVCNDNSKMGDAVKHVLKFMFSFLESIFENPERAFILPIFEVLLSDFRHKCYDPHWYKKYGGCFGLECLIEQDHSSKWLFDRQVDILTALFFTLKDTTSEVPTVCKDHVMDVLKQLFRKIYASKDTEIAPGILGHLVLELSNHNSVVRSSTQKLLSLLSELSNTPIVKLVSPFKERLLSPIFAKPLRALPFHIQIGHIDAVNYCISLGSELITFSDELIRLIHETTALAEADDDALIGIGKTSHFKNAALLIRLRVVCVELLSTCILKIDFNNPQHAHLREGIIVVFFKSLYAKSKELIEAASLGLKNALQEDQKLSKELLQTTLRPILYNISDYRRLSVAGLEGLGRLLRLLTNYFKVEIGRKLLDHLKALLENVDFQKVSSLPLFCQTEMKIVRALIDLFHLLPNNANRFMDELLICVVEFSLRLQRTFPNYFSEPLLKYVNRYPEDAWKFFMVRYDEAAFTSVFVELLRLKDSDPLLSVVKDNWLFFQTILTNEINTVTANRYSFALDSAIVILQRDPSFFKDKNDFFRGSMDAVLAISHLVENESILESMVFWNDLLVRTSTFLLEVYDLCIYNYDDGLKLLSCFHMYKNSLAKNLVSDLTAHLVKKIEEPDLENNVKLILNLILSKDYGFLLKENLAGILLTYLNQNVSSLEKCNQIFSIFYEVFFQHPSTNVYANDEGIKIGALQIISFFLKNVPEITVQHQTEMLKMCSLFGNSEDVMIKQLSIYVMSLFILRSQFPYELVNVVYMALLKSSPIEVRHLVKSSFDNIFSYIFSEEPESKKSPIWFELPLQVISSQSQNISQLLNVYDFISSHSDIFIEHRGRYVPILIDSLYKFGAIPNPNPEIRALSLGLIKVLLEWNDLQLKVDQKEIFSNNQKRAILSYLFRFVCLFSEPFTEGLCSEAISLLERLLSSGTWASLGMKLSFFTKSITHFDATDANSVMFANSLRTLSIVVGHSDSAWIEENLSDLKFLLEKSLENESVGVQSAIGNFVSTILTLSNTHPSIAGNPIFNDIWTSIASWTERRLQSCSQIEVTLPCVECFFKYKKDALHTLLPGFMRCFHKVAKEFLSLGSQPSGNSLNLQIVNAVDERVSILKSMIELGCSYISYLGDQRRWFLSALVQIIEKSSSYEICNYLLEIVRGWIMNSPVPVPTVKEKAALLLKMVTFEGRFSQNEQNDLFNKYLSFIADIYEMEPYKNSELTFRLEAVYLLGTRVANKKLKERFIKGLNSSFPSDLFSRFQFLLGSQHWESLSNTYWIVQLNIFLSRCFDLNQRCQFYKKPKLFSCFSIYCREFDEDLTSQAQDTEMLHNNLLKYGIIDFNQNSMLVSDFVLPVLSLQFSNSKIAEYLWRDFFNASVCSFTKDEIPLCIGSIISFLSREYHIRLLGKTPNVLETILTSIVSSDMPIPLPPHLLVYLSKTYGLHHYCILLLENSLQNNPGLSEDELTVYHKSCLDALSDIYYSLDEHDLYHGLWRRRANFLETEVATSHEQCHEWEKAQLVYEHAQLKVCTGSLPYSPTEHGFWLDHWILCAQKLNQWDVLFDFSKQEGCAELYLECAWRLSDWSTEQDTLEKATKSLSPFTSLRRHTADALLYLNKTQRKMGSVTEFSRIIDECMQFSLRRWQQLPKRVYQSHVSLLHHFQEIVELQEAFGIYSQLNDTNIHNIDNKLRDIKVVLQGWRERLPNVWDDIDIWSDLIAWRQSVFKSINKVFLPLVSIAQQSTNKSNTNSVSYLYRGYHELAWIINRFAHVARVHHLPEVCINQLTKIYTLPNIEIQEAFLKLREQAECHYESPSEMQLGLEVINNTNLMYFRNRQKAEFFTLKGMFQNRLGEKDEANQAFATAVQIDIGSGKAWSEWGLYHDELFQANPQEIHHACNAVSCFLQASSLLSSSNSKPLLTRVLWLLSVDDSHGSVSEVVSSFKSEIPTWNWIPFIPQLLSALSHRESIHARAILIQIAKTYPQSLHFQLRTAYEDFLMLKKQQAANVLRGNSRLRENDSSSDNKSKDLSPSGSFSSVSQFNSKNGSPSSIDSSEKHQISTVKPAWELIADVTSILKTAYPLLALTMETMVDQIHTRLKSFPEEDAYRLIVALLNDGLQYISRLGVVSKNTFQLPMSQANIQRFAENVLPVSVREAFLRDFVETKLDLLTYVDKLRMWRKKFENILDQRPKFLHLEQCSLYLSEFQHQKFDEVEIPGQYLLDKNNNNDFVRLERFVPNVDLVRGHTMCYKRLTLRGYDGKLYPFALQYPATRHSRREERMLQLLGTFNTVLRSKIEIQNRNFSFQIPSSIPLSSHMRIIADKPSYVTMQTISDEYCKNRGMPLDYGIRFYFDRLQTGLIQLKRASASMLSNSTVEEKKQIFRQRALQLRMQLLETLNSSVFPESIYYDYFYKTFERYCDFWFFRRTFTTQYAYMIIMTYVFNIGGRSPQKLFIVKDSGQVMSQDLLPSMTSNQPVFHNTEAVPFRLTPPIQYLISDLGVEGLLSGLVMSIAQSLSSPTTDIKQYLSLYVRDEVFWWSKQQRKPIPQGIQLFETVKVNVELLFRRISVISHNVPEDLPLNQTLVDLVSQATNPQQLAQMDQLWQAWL
UniProt Q09819: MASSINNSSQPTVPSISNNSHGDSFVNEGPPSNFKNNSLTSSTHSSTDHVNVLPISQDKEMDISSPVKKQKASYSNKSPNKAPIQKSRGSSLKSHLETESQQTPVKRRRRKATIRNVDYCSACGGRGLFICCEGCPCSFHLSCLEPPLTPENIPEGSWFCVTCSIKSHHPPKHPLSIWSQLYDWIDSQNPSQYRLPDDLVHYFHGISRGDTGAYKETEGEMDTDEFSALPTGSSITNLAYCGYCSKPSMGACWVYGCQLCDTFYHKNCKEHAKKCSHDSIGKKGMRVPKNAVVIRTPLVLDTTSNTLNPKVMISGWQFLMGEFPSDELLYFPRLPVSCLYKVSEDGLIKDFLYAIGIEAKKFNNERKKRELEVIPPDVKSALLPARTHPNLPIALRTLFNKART

Biological target: T1, IES6 (S. pombe) (S. pombe) (UniProt Q9UTE8)
T1 sequence: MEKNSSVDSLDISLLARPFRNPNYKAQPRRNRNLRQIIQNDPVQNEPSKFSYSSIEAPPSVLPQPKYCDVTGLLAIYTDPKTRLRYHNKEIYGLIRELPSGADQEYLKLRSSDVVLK
Assay: affinity purification with mass spectrometry; TAP of baits TAP-tagged at their genes from S. pombe extracts; eluates on 6-18% gels, Coomassie, bands and slices identified by MALDI peptide mapping and LC-MS/MS; common background removed, A-index cut-off 1.75

binding	Substance
binds	ACT1 (S. pombe) (from UniProt P10989 1-375)
binds	NHT1 (S. pombe) (from UniProt O42648)
binds	ARP8 (S. pombe) (from UniProt Q9US07)
binds	Sp_Pht1p (from UniProt P48003 1-139)

Biological target: T2, SWC2 (S. pombe) (S. pombe) (UniProt Q9P790)
T2 sequence: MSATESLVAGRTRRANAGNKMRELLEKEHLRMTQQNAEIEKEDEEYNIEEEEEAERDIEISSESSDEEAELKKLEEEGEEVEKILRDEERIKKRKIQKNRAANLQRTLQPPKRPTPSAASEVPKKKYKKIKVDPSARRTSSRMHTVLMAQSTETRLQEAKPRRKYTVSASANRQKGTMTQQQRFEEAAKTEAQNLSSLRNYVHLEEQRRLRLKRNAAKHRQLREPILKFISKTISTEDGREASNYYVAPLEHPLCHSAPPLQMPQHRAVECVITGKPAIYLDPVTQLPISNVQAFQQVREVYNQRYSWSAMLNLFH
Assay: as above

binding	Substance
binds	ACT1 (S. pombe) (from UniProt P10989 1-375)
binds	RVB1 (S. pombe) (from UniProt Q9C0X6 1-456)
binds	Sp_Pht1p (from UniProt P48003 1-139)
binds	Sp_Msc1p (from UniProt Q9UT79 1-1588)

Biological target: RVB1 (S. pombe) (S. pombe) (UniProt Q9C0X6)
Assay: as above

binding	Substance
binds	ACT1 (S. pombe) (from UniProt P10989 1-375)
binds	NHT1 (S. pombe) (from UniProt O42648)
binds	ARP8 (S. pombe) (from UniProt Q9US07)
binds	Tra1 (S. pombe) (from UniProt Q9HFE8 1-3661)
binds	Sp_Pht1p (from UniProt P48003 1-139)
binds	Sp_Msc1p (from UniProt Q9UT79 1-1588)

Biological target: T3, Sp_Set3p (S. pombe) (UniProt Q10362)
T3 sequence: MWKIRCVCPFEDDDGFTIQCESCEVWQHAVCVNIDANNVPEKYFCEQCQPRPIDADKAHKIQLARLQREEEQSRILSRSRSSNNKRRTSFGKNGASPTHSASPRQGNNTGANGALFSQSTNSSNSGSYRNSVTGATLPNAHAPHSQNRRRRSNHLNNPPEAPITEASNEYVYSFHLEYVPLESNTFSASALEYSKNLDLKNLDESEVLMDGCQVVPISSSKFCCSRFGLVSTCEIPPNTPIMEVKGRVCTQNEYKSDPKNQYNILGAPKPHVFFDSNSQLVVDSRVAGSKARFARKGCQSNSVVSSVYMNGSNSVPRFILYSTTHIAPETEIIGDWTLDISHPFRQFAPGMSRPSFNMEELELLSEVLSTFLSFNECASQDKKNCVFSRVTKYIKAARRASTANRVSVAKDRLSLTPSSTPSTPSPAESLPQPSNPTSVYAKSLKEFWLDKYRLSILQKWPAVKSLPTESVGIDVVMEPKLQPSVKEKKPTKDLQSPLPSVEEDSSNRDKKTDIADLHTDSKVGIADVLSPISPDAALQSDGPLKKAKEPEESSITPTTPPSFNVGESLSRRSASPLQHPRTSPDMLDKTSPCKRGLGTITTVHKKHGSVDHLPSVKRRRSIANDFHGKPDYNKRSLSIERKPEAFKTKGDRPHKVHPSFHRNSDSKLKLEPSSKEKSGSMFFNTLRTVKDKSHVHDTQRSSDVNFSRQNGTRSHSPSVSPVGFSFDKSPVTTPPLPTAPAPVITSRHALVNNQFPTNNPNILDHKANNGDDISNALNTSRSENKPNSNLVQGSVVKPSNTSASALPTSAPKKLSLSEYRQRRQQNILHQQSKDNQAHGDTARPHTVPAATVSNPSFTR
Assay: as above

binding	Substance
no binding	Sp_Hst1 (S. pombe)
binds	Sp_Snt1p (from UniProt Q10369)

Biological target: T4, YAF9 (S. pombe) (S. pombe) (UniProt Q10319)
T4 sequence: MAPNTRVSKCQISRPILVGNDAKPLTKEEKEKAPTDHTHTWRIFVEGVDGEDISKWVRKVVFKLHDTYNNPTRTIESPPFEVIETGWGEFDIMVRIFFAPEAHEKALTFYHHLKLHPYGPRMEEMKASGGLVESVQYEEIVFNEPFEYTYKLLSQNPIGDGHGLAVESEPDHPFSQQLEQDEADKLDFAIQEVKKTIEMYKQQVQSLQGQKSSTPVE
Assay: as above

binding	Substance
binds	ACT1 (S. pombe) (from UniProt P10989 1-375)
binds	PNG1 (S. pombe) (from UniProt O42871)
binds	RVB1 (S. pombe) (from UniProt Q9C0X6 1-456)
binds	Sp_Pht1p (from UniProt P48003 1-139)
binds	Sp_Msc1p (from UniProt Q9UT79 1-1588)
binds	Tra2 (S. pombe) (from UniProt Q10064 1-3655)

Biological target: T5, Sp_Alp13p (S. pombe) (UniProt O13953)
T5 sequence: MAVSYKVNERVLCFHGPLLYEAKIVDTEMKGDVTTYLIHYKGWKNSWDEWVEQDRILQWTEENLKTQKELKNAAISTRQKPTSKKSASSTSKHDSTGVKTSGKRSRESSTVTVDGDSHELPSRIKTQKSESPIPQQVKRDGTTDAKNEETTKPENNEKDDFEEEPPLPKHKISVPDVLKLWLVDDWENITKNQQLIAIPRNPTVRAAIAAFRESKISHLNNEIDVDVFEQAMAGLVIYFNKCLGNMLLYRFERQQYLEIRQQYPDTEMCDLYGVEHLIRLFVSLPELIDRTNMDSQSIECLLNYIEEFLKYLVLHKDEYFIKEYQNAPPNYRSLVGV
Assay: as above

binding	Substance
binds	Sp_Cph2 (from UniProt Q09698)
binds	ACT1 (S. pombe) (from UniProt P10989 1-375)
binds	PNG1 (S. pombe) (from UniProt O42871)
binds	Sp_Cph1 (from UniProt Q09819)
binds	Tra2 (S. pombe) (from UniProt Q10064 1-3655)

Biological target: T6, Clr6p (S. pombe) (S. pombe) (UniProt O59702)
T6 sequence: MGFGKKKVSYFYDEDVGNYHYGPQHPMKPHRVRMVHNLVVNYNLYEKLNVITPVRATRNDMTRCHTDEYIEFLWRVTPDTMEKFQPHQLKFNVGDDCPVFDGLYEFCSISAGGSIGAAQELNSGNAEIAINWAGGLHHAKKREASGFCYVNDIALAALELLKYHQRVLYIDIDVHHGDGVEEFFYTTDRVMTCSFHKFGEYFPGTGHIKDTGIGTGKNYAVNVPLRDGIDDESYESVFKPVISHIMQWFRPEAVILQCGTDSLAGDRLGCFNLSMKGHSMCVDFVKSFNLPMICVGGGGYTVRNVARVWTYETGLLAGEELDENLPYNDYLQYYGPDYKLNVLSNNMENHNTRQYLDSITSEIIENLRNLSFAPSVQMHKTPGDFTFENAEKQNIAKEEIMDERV
Assay: as above

binding	Substance
binds	Sp_Cph2 (from UniProt Q09698)
binds	Sp_Pst1p (from UniProt Q09750 1-1522)
binds	Sp_Rxt2p (from UniProt O94355)
binds	Sp_Cph1 (from UniProt Q09819)

Biological target: T7, Sp_Png2 (S. pombe) (UniProt O74736)
T7 sequence: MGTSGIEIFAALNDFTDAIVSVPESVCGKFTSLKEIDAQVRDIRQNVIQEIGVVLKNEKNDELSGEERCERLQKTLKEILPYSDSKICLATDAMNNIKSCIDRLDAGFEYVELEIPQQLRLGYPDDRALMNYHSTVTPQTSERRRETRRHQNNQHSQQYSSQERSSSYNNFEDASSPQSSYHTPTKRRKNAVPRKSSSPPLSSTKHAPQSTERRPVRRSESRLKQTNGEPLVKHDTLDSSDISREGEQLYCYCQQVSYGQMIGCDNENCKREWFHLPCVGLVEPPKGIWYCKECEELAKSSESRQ
Assay: as above

binding	Substance
binds	Sp_Pst1p (from UniProt Q09750 1-1522)
binds	Sp_Rxt2p (from UniProt O94355)

Biological target: T8, SWC4 (S. pombe) (S. pombe) (UniProt O14308)
T8 sequence: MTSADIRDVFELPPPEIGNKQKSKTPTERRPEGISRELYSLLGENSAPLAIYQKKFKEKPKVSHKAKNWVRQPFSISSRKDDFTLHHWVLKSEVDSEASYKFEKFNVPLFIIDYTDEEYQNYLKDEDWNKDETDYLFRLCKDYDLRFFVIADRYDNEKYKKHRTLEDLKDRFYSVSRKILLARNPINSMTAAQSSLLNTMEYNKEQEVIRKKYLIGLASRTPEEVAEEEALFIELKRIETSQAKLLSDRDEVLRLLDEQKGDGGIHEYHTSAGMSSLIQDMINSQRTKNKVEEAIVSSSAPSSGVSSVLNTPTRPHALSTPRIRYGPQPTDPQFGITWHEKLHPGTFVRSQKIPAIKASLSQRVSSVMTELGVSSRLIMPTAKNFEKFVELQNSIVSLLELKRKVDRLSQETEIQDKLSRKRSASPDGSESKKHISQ
Assay: as above

binding	Substance
binds	PNG1 (S. pombe) (from UniProt O42871)
binds	RVB1 (S. pombe) (from UniProt Q9C0X6 1-456)
binds	Sp_Pht1p (from UniProt P48003 1-139)
binds	Sp_Msc1p (from UniProt Q9UT79 1-1588)
binds	Tra2 (S. pombe) (from UniProt Q10064 1-3655)

Biological target: T9, Sc_Tos4p (S. cerevisiae) (UniProt Q06266)
T9 sequence: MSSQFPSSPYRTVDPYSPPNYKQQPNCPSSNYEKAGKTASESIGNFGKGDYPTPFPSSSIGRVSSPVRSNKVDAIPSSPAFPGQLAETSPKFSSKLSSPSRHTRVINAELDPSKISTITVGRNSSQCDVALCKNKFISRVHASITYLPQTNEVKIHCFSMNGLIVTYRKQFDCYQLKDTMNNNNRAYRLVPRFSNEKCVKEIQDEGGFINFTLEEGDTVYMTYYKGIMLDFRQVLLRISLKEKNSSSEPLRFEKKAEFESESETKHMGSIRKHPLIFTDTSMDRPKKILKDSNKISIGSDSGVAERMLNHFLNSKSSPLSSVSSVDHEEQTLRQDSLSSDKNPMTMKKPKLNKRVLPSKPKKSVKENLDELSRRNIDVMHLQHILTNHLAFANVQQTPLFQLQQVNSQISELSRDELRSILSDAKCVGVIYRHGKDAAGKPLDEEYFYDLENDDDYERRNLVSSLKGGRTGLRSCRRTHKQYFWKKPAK
Assay: affinity purification with mass spectrometry; TAP of baits TAP-tagged at their genes from S. cerevisiae extracts; eluates on 6-18% gels, Coomassie, bands and slices identified by MALDI peptide mapping and LC-MS/MS; common background removed, A-index cut-off 1.75

binding	Substance
no binding	Sc_Hst1p (from UniProt P53685 1-503)
binds	Sc_Cph1p (from UniProt P14832 1-162)
